PubChem BioAssay AID1671190 (National Center for Advancing Translational Sciences (NCATS), 2021)
Out of some 580,000 compounds screened, about 6,100 (1.1%) were called active. The inconclusive results got no clear call from the source; some entries with a clear call stand among them for comparison. Calls come from the whole dose curve; as a rule, active = well fitted inhibition curve with a large enough effect; inconclusive = small, poorly fitted or top-dose-only effect, or another doubt; inactive = no such curve, though single readings can be large or run the other way. A potency beside an inconclusive call is a rough fit, not a confirmed value.

The chains behind the UniProt entries cited, without tags or fusion partners. Where a name states a change or a piece, a line headed by the entry shows the natural chain unless it says otherwise.
UniProt P18054: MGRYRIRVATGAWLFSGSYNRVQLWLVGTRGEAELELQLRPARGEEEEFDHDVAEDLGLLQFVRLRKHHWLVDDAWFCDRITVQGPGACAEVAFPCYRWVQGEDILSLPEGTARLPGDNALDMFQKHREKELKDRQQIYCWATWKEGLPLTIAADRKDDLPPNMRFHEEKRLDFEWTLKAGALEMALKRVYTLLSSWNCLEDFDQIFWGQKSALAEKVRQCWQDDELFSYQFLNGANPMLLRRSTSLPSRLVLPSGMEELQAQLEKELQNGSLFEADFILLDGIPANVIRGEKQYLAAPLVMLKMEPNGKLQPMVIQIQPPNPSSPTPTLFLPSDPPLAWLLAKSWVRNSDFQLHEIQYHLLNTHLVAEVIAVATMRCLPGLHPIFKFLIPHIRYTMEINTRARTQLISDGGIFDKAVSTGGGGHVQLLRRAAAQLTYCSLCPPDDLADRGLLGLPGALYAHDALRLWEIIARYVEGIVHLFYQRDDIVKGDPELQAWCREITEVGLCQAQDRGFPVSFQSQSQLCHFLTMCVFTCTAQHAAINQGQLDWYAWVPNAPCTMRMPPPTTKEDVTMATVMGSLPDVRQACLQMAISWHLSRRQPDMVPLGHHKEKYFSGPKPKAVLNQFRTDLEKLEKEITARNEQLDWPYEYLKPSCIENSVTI

Biological target: Polyunsaturated fatty acid lipoxygenase ALOX12 (Homo sapiens) (UniProt P18054)
Assay: Primary qHTS assay for inhibitors of human arachidonate 12S-lipoxygenase (ALOX12): Round 2
Details: purified 12hLO, xylenol orange hydroperoxide absorbance; activity change, negative = inhibition: at 108 µM (top of the series) unless noted
Outline: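 Purified human 12hLO (150 nM final) in 25 mM Hepes, 0.01% Triton X-100, pH 7.0 was preincubated 15 min at room temperature with compound. Then 40 uM arachidonic acid was added, 30 min. Hydroperoxide was read by Fe-XO absorbance ratio 573/405 nm.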
% is set by controls: 0 for no effect and ±100 for the full control effect; potency is the fitted concentration of half-maximal effect.

Row | Compound | Potency | activity change, negative = inhibition
1 | O=[N+]([O-])c1ccc(/C=N/NC(=S)Nc2ccccc2C(F)(F)F)o1 | inconclusive: 44.7 µM [inhibitor, partial curve, poor fit] | –
2 | Cn1c(CSCc2ccc(Cl)cc2)nnc1SCC(=O)Nc1nccs1 | – | inactive: -28.6%
3 | Fc1ccccc1CN1CCCCCCC1 | inconclusive: 0.501 µM [inhibitor, full curve, poor fit] | –
4 | Cc1cccc(NC(=O)c2ccc3c(c2)OCCO3)c1 | – | inactive: -12.6%
5 | O=C(CSc1nnc(Cn2nnc3ccccc32)o1)N(Cc1ccc(F)cc1)c1ccccc1 | – | inactive: 14.7%
6 | OC(COc1ccc(F)cc1)CN1CCN(c2ccccc2F)CC1 (configuration not stated) | inconclusive: 28.2 µM [inhibitor, partial curve] | –
7 | Cc1nnc(NC(=O)CC(CN(C)S(=O)(=O)c2ccccc2)c2ccccc2)s1 (configuration not stated) | inconclusive: 89.1 µM [inhibitor, single point] | –
8 | O=C(CC12CC3CC(CC(C3)C1)C2)Nc1ccc(F)c(Cl)c1 | inconclusive: 0.708 µM [inhibitor, full curve, poor fit] | –
9 | CCCNC(=O)COC(=O)c1csc(NCc2ccccc2)n1 | inconclusive: 50.1 µM [inhibitor, partial curve, poor fit] | –
10 | C[C@]12CC(O)C3C(CCC4=CC(=O)CC[C@@]43C)C1CCC2c1csc(-c2ccccc2)n1 (some centres not stated) | inconclusive: 35.5 µM [inhibitor, single point] | –
11 | COc1ccc(N2C(=O)CC(Sc3nc(C)c4cc(OC)ccc4n3)C2=O)cc1 (configuration not stated) | – | inactive: -5.82%
12 | COc1ccc2c(c1)CC/C(=C/c1ccccn1)C2=O | inconclusive: 79.4 µM [inhibitor, single point] | –
13 | COc1ccc(S(=O)(=O)N2CCCCCC2)cc1NC(=O)Cc1ccc(OC)c(OC)c1 | inconclusive: 2 µM [inhibitor, full curve, poor fit] | –
14 | O=C(O)C(=O)CCc1cccs1 | inconclusive: 50.1 µM [inhibitor, partial curve, poor fit] | –
15 | c1cc(-c2noc(CSc3nnnn3C3CC3)n2)cs1 | – | inactive: -9.61%
16 | Cc1ccccc1NC(=O)c1cnn2c1NC(C(=O)O)=CC2/C=C/c1ccccc1 (configuration not stated) | inconclusive: 10 µM [inhibitor, full curve, poor fit] | –
17 | Cc1ccc(-c2nc3cnccn3c2Nc2ccc3c(c2)OCO3)o1 | inconclusive: 79.4 µM [inhibitor, single point] | –
18 | CC(=O)N1CCc2c(sc3c2c(=O)n(-c2ccccc2)c(=O)n3CC(=O)Nc2ccccc2)C1 | inconclusive: 70.8 µM [inhibitor, partial curve, poor fit] | –
19 | O=C(Nc1ccc2ccccc2c1)[C@@H]1C[C@H]1[C@@H](NP(=O)(c1ccccc1)c1ccccc1)c1ccccc1 | inconclusive: 100 µM [inhibitor, single point] | –
20 | CN1C(=O)Cc2cc(-c3csc(-c4ccc(F)cc4)n3)ccc21 | – | inactive: -11.6%
21 | CCc1ccc(-c2nc(C)c(C(=O)Nc3ccc4[nH]c(=O)[nH]c4c3)s2)cc1 | inconclusive: 89.1 µM [inhibitor, single point] | –
22 | O=C1COc2ccc(N3CCCC3)nc2CN1Cc1ccc(C(F)(F)F)cc1 | inconclusive: 56.2 µM [inhibitor, partial curve, poor fit] | –
23 | Cc1nc(Nc2ccccc2O)c2oc3ccccc3c2n1 | inconclusive: 35.5 µM [inhibitor, partial curve, poor fit] | –

Row | Compound | Potency | activity change, negative = inhibition
24 | Cc1cc(C(=O)COC(=O)Cn2cnc3c2c(=O)n(C)c(=O)n3C)c(C)n1C | inconclusive: 4.47 µM [inhibitor, partial curve, poor fit] | –
25 | O=C(Nc1cc(F)cc(F)c1)c1cnc(-c2ccc(F)cc2)nc1-c1ccncc1 | inconclusive: 39.8 µM [inhibitor, partial curve] | –
26 | COC(=O)c1ccc(NC(=O)N(C)CCc2noc(-c3ccc(C(=O)N4CCCC4)cc3)n2)cc1 | inconclusive: 112 µM [inhibitor, single point] | –
27 | COCCCn1c(C)cc(C(=O)Cn2cnc3c2c(=O)n(C)c(=O)n3C)c1C | inconclusive: 4.47 µM [inhibitor, full curve, poor fit] | –
28 | Cc1ccc(Cl)cc1NC(=O)CCC(=O)N1CC(C)Sc2ccccc21 (configuration not stated) | inconclusive: 0.355 µM [inhibitor, full curve, poor fit] | –
29 | CC1(Oc2cccc(F)c2)CCN(Cc2ccc(-c3ccccc3)o2)C1 (configuration not stated) | inconclusive: 44.7 µM [inhibitor, partial curve, poor fit] | –
30 | CCC1CN(C(=O)N2CCC(C(=O)N3CCN(c4cccc(C)c4C)CC3)CC2)c2ccccc2O1 (configuration not stated) | – | inactive: 0%
31 | Cc1ccc2[nH]c(-c3cccc(N)c3)cc2c1 | – | inactive: 0%
32 | Cc1nc2cc(NC(=O)c3ccc(N4C(=O)CCC4=O)cc3)ccc2s1 | – | inactive: 0%
33 | COc1ccccc1N1CCN(/N=C/c2cccc(Cl)c2)CC1 | – | inactive: -5.44%
34 | CC(C)OCc1ccccc1CNS(=O)(=O)c1ccc(Cl)cc1C(F)(F)F | inconclusive: 79.4 µM [inhibitor, single point] | –
35 | O=C(C(Cl)c1ccccc1)N1CCOCC1 (configuration not stated) | inconclusive: 35.5 µM [inhibitor, single point] | –
36 | CNc1cc(C2CC(NS(=O)(=O)c3ccc(Cl)s3)C2)nc(N)n1 (configuration not stated) | inconclusive: 25.1 µM [inhibitor, full curve, poor fit] | –
37 | O=C(Cn1c(=O)oc2cc(S(=O)(=O)N3CCCCC3)ccc21)N1CCc2ccccc21 | inconclusive: 100 µM [inhibitor, single point] | –
38 | CCc1ccc(CC)c(S(=O)(=O)Nc2ccc(O)c(C(=O)O)c2)c1 | inconclusive: 44.7 µM [inhibitor, partial curve, poor fit] | –
39 | Cc1ccc(-n2c(=O)c3c4c(sc3n(CC(=O)c3ccc(Cl)cc3)c2=O)CCC4)cc1C | inconclusive: 3.55 µM [inhibitor, full curve, poor fit] | –
40 | Cc1c(NC(=S)NC(=O)c2sc3ccccc3c2Cl)cccc1C(=O)O | inconclusive: 2.51 µM [inhibitor, full curve, poor fit] | –
41 | C=CCn1c(Cc2nc3ccc(Cl)cc3[nH]2)n[nH]c1=S | – | inactive: 9.24%
42 | O=C([C@@H]1C[C@@H](Sc2nc3ccccc3[nH]2)CN1CC1CCCCC1)N1CCOCC1 | inconclusive: 100 µM [inhibitor, single point] | –
43 | CCCCCn1c(N)c(-c2nc3ccccc3s2)c2c([N+](=O)[O-])nn(CC)c(=O)c21 | – | inactive: -3.45%
44 | CC1(C(=O)O)CCCN(C(=O)c2ccc(OC(F)F)cc2)C1 (configuration not stated) | inconclusive: 79.4 µM [inhibitor, partial curve, poor fit] | –
45 | COc1ccccc1CC(=O)Nc1nc(C)c(C(C)=O)s1 | – | inactive: 1.14%
46 | O=C(NC1CCCc2c1[nH]c1ccccc21)c1cccs1 (configuration not stated) | active: 44.7 µM | –

Row | Compound | Potency | activity change, negative = inhibition
47 | CCOC(=O)[C@]12CCCC=C1N(Cc1ccco1)C(=O)[C@H](CC(=O)N1CCN(C(=O)c3ccco3)CC1)C2 | – | inactive: -1.02%
48 | COc1ccccc1OCC(=O)Nc1ccc2c(c1)n(C)c(=O)n2C | – | inactive: 3.9%
49 | COc1cccc(-c2nc(NCc3ccccc3OC)c3ccccc3n2)c1 | inconclusive: 17.8 µM [inhibitor, full curve, poor fit] | –
50 | CCc1ccc(NC(=O)Cn2c(-c3ccc(F)cc3)nc(C)c(CCO)c2=O)cc1 | – | inactive: 9.36%
51 | CN(Cc1ccc2c(c1)OCO2)C(=O)c1nn(-c2ccccc2)c(=O)c2ccccc12 | inconclusive: 63.1 µM [inhibitor, partial curve, poor fit] | –
52 | CN(C)CCN(C(=O)CCS(=O)(=O)c1ccccc1)c1nc2cc3c(cc2s1)OCO3 | inconclusive: 44.7 µM [inhibitor, partial curve, poor fit] | –
53 | O=C(NCC(F)(F)F)c1ccc(CN(C(=O)/C=C/c2ccccc2)C2CC2)cc1 | – | inactive: 4.41%
54 | O=c1cc(O)c(-c2ccc(Cl)c(Cl)c2)c(Cl)[nH]1 | inconclusive: 44.7 µM [inhibitor, partial curve, poor fit] | –
55 | CCOC(=O)c1cnc2nc(NCc3ccc(OC)c(OC)c3)[nH]n2c1=O | inconclusive: 15.8 µM [inhibitor, partial curve, poor fit] | –
56 | CN(Cc1ccco1)C(=O)c1ccc2c(c1)N(Cc1ccccc1F)C(=O)c1ccccc1S2 | inconclusive: 39.8 µM [inhibitor, partial curve, poor fit] | –
57 | CCCCn1c(SCC(=O)NCc2ccco2)nnc1-c1ccoc1C | inconclusive: 3.16 µM [inhibitor, full curve, poor fit] | –
58 | COc1ccc2nc(SCC(=O)N3CCN(c4ccc(F)cc4)CC3)c(C#N)cc2c1 | inconclusive: 0.0794 µM [inhibitor, full curve, poor fit] | –
59 | CCNc1ncc2nc(-c3ccc(OC)cc3)c(=O)n(C)c2n1 | inconclusive: 10 µM [inhibitor, partial curve, poor fit] | –
60 | CC(C)(C)c1cc(Sc2c(Cl)c(Cl)nc(Cl)c2Cl)cc(C(C)(C)C)c1O | – | inactive: 17.6%
61 | COc1cc(N2C(=O)C=CC2=O)c(OC)cc1Cl | active: 15.8 µM | –
62 | CCOC(=O)C1=C(CC)Nc2ccccc2N=C1NC(=O)c1ccc(C)c(S(=O)(=O)N2CCOCC2)c1 | – | inactive: -17.6%
63 | O=S(=O)(c1ccc(OC(F)(F)F)cc1)N1CCC(O)(c2cccc(C(F)(F)F)c2)CC1 | – | inactive: 29.7%
64 | COc1ccc(NC(=O)COc2cccc3c2OC(C)(C)C3)c(OC)c1 | – | inactive: -17.1%
65 | CC(=O)c1ccc(N2CCN(Cc3nc(-c4cccs4)no3)CC2)c(F)c1 | – | inactive: 7.72%
66 | COc1cc(OC)c(C(=O)N2Cc3cnc(CC(C)C)nc3C2)cc1OC | – | inactive: 10.2%
67 | COC(=O)c1ccc(Cl)cc1NC(=O)N1CC=C(c2c[nH]c3ccccc23)CC1 | inconclusive: 39.8 µM [inhibitor, full curve, poor fit] | –

In the list so far, 2 contain a nitro group on carbon:
Row | Compound | Potency | activity change, negative = inhibition
1 | O=[N+]([O-])c1ccc(/C=N/NC(=S)Nc2ccccc2C(F)(F)F)o1 | inconclusive: 44.7 µM [inhibitor, partial curve, poor fit] | –
43 | CCCCCn1c(N)c(-c2nc3ccccc3s2)c2c([N+](=O)[O-])nn(CC)c(=O)c21 | – | inactive: -3.45%
